The assay addresses T1, Flag-USP47 (Ubiquitin-Specific Protease 47) (UniProt Q96K76).
T1 sequence: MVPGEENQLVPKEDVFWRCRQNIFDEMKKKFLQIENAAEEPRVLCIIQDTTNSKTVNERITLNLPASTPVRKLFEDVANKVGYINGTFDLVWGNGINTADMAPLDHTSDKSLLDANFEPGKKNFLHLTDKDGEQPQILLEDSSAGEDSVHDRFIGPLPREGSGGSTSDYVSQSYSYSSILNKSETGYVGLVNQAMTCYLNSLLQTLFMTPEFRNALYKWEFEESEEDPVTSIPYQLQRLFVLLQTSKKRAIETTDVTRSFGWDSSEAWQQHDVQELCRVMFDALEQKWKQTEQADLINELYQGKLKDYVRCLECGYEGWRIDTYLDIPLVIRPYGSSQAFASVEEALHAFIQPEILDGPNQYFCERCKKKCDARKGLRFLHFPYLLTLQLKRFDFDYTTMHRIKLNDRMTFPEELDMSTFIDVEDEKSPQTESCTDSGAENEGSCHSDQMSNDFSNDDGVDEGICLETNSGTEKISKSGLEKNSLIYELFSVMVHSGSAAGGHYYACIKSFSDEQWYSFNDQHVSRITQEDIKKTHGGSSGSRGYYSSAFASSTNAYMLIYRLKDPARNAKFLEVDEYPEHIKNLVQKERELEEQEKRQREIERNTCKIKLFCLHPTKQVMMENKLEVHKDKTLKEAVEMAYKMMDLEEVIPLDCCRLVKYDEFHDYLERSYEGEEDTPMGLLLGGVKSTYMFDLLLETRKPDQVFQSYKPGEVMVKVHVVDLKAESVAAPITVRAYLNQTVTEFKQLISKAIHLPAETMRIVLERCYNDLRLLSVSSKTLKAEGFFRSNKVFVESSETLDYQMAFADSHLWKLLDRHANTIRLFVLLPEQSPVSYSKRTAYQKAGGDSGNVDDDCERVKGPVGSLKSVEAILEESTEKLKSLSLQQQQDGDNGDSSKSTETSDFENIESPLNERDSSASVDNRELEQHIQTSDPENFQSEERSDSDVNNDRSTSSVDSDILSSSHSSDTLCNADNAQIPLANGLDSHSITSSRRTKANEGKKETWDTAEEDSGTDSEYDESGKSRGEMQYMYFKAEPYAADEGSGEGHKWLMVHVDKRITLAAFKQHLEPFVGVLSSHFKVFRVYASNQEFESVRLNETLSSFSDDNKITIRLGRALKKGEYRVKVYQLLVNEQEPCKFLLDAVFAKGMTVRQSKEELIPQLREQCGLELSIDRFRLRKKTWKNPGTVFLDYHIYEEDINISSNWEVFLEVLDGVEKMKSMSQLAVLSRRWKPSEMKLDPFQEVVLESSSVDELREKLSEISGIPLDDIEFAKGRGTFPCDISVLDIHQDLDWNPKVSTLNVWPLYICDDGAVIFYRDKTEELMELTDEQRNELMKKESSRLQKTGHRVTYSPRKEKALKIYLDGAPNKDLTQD
Description: co-IP; MEFs transfected with ERAP1 and/or Flag-USP47; whole-cell extracts in Triton Buffer (50 mM Tris-HCl pH 7.5, 250 mM sodium chloride, 50 mM sodium fluoride, 1 mM EDTA pH 8, 0.1% Triton); antibody overnight at 4 °C, Protein G- or Protein A-agarose beads, five washes, immunoblot; for Flag-USP47 with βTrCP also increasing amounts of ERAP1, Leu-SH for 24 h, or shERAP1. On the technique in general: A western blot detects proteins with antibodies after separation by electrophoresis.

Results are given in words; binding and its absence hold for the method and conditions named. Binding seen in cells or lysates may run through a third protein. A result given as binding can be weak or reduced; the word gives no strength. Tags and fused reporters may be left off the sequences shown.

Take “endogenous β-transducin-repeat containing E3 ubiquitin protein ligase (βTrCP) (mouse (endogenous in MEFs))”: the binding result is on record as “binds”.

Values taken from PMC6656771.
